Measured values: PubChem BioAssay AID493014 (National Center for Advancing Translational Sciences (NCATS), 2011)
Out of some 340,000 compounds screened, about 170 (0.05%) were called active. Inconclusive results, whose numbers are uncertain, are shown with a selection of clear calls. Calls come from the whole dose curve; as a rule, active = well fitted inhibition curve with a large enough effect in the signal ratio, with a control signal flat (not every such curve was filed as active); inconclusive = small, poorly fitted or top-dose-only effect, or effect the other way, or a change in a side signal; inactive = flat fitted curve, though single readings scatter; the % refers to the signal ratio. Potencies of inconclusive entries are doubtful fits and often do not repeat.

experiment: qHTS Assay to Find Inhibitors of Chronic Active B-Cell Receptor Signaling; conditions: ABC-DLBCL IkBa-CBG/CBR reporter, luminescence ratio (green luciferase fused to IkBa over red control in TMD8 lymphoma cells), 4 h; activity change, negative = inhibition: at 46.1 µM (top of the series);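 for activity change, negative = inhibition: plate controls were basal doxycycline-induced cells for no effect and cells given 10 µM MG132 for full effect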
Method in brief: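 Compounds up to 46 uM were incubated four hours with TMD8 cells whose green CBG68 luciferase is fused to IkappaBalpha; red CBR luminescence normalised the signal, and concentration-effect curves were fitted to fusion, red and ratio data.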
Potency is the fitted concentration of half-maximal effect.

| Compound | activity change, negative = inhibition | Potency |
| --- | --- | --- |
| Cn1c2ccccc2c(=O)c2ccc(C#CC3(O)CCCCC3)cc21 | inconclusive: 26.6% | – |
| COc1ccc(C(=O)NCCS(=O)(=O)NC2CCCC2)cc1 | inconclusive: 7.74% | – |
| Cc1cc(Cl)ccc1OCC(=O)N[C@@H](Cc1ccccc1)c1nc2ccccc2[nH]1 | inconclusive: 11% | – |
| Cc1ccc(SCCNC(=O)c2ccc(C)c(S(=O)(=O)Nc3ccccc3C)c2)cc1 | inconclusive: -3.27% | – |
| CCS(=O)(=O)N1CCC(C(=O)N2CCc3ccccc3C2)CC1 | inconclusive: -5.17% | – |
| Cc1onc(-c2ccccc2Cl)c1C(=O)OCC(=O)c1ccc2c(c1)OCCO2 | inconclusive: -9.16% | – |
| S=C(Nc1ccc2nsnc2c1)N1CCCC1 | inconclusive: -3.9% | – |
| C=CCN=c1scc(C)n1/N=C/c1ccc(O)c(O)c1 | – | inconclusive: 35.5 µM [falling, single point] |
| Cc1ccc(S(=O)(=O)n2nc(OC(=O)c3c(F)cccc3Cl)cc2N)cc1 | – | inconclusive: 10 µM [falling, partial curve, poor fit] |
| O=[N+]([O-])c1ccc(COc2cccc(CNc3ccc(F)cc3)c2)cc1 | inconclusive: -12.3% | – |
| CCCSc1nsc(N)n1 | inconclusive: -2.09% | – |
| Cc1csc(NC(=O)CSc2nnc(-c3ccc(Cl)cc3)n2N)n1 | – | inconclusive: 29.1 µM [rising, partial curve, poor fit] |
| COC(=O)C1=NN(C(=O)c2ccc(C)cc2)C(O)(c2ccc(Cl)cc2)C1 (configuration not stated) | inactive | – |
| CN(C)c1ccc(S(=O)(=O)N2CCCCC2)cc1NC(=O)C1CSC2(C)CCC(=O)N12 (configuration not stated) | inconclusive: -3.92% | – |
| CCn1cc(C(=O)Nc2ccc(F)c(F)c2)cn1 | inconclusive: 2.61% | – |
| Cn1ccnc1/C(=N\NC(=O)c1ccc(O)cc1)c1cccc([N+](=O)[O-])c1 | – | inconclusive: 11.2 µM [rising, partial curve, poor fit] |
| COc1cccc(/C=C/C(=O)c2c(O)cc(C)oc2=O)c1O | inconclusive: 8.1% | – |
| O=C(CSc1nnc(CNc2ccc(F)cc2)n1CC1CCCO1)N1CCOCC1 (configuration not stated) | inactive | – |
| CC(OC(=O)Cc1c[nH]c2ccccc12)C(=O)Nc1ccccc1F (configuration not stated) | – | inconclusive: 23.1 µM [falling, partial curve] |
| CC(C1CC1)N(Cc1ccccc1)C(=S)Nc1cccc(C(F)(F)F)c1 (configuration not stated) | inconclusive: 1.1% | – |
| Cc1c(NC(=O)C2CCCO2)cccc1[N+](=O)[O-] (configuration not stated) | inconclusive: -6.4% | – |
| O=C(N/N=C/c1ccncc1)C1CC1(c1ccccc1)c1ccccc1 (configuration not stated) | – | inconclusive: 22.4 µM [falling, single point] |
| O=C(NC1CC1)c1c(O)c2ccccc2[nH]c1=O | inactive | – |
| CS(=O)(=O)N1CCCC(C(=O)NCCc2ccc(Cl)cc2)C1 (configuration not stated) | – | inconclusive: 35.5 µM [falling, partial curve, poor fit] |
| O=C(Nc1ccccc1F)C1CCCN(S(=O)(=O)c2ccccc2)C1 (configuration not stated) | inactive | – |
| CC(C)(C)C#CCn1c(/C=[N+](\[O-])C2CCCCC2)nc2ccccc21 | inactive | – |

| Compound | activity change, negative = inhibition | Potency |
| --- | --- | --- |
| S=c1[nH]ncn1/N=C/c1ccc(Br)cc1 | – | inconclusive: 35.5 µM [falling, single point] |
| O=C(NNC(=O)c1cnccn1)c1ccc(Cl)c(Cl)c1 | – | inconclusive: 35.5 µM [rising, single point] |
| CCCN(CC(=O)Nc1cccc(Br)c1)CC(=O)Nc1ccc(F)c(F)c1F | inconclusive: 29.7% | – |
| CCOc1ccc(NC(=O)c2cc3cc4ccc(OC)cc4nc3o2)cc1 | inactive | – |
| O=c1cc(CN2CCN(c3ccccc3F)CC2)c2cc3c(cc2o1)CCCC3 | inconclusive: 4.52% | – |
| COc1ccc(CCNC(=O)CN2CCN(S(=O)(=O)c3ccc(Cl)cc3)CC2)cc1OC | inconclusive: 5.01% | – |
| COc1ccc(OC)c(-c2nnc3n2N=C(c2ccc(OC)c(OC4CCOC4)c2)CS3)c1 (configuration not stated) | – | inconclusive: 1.3 µM [falling, full curve] |
| CCOC(=O)c1ccc(NC(=O)COc2ccc(CNCCO)cc2OCC)cc1 | inconclusive: -0.101% | – |
| CCOC(=O)c1ccc(-c2ccc(C=O)o2)cc1 | – | inconclusive: 25.1 µM [falling, single point] |
| O=C(N/N=C/c1ccc([N+](=O)[O-])cc1)c1cc2ccccc2o1 | inconclusive: 2.59% | – |
| COc1ccc(-c2cccc(C(=O)N3CCOCC3)c2)cc1 | inconclusive: 17.4% | – |
| CS(=O)(=O)N1CCN(c2ccccc2NC(=O)C(c2ccccc2)c2ccccc2)CC1 | inconclusive: -13.9% | – |
| Cc1ccc2nc(NC(=O)CSc3[nH]c(=O)ncc3C)sc2c1 | inconclusive: -20% | – |
| Brc1ccc(-c2nc(-c3ccccn3)no2)o1 | – | inconclusive: 20.6 µM [falling, partial curve] |
| CCOc1ccc(CCNC(=O)c2ccc(S(=O)(=O)N3CCCC3)cc2)cc1OCC | inactive | – |
| Cc1ccc(NS(=O)(=O)c2cc(-c3cc(C)no3)ccc2C(C)C)nc1 | inactive | – |
| CC(C)CCC(C(=O)O)C(C)CC(=O)Nc1ccn(-c2ccccc2)n1 (configuration not stated) | – | inconclusive: 12.6 µM [rising, partial curve, poor fit] |
| COc1ccc2cc(C(=O)C3CCCN(C(=O)c4cnccn4)C3)ccc2c1 (configuration not stated) | inconclusive: -21.7% | – |
| O=C1Nc2ccccc2Oc2cc([N+](=O)[O-])cc(Oc3ccccc3)c21 | inconclusive: -2.87% | – |
| CCCn1c(N)c(C(=O)CSc2nc3ccccc3c(=O)n2Cc2ccccc2)c(=O)[nH]c1=O | inconclusive: 7.06% | – |
| Cc1cc(C(=O)N/N=C/c2ccc([N+](=O)[O-])cc2)c2ccccc2n1 | inconclusive: 1.43% | – |
| COc1ccc(CCn2nc(C)c([N+](=O)[O-])c2C)cc1 | inactive | – |
| CS(=O)(=O)N1CCN(C(=O)Nc2ccccc2)CC1 | inconclusive: 12.1% | – |
| Cc1ccc(-n2c(SCc3ccccc3F)nc3[nH]ncc3c2=O)cc1Cl | inconclusive: 1.37% | – |
| CCCc1cc(=O)[nH]c(SCC(=O)N2CCc3ccccc32)n1 | inactive | – |
| COCc1[nH]nc2c1C(c1ccccc1OC)C(C#N)=C(N)O2 (configuration not stated) | inconclusive: -1.14% | – |

Record cards (already shown). Values in the order: activity change, negative = inhibition | Potency
CCCN(CC(=O)Nc1cccc(Br)c1)CC(=O)Nc1ccc(F)c(F)c1F as listed: inconclusive: 29.7% | –
Brc1ccc(-c2nc(-c3ccccn3)no2)o1 as listed: – | inconclusive: 20.6 µM [falling, partial curve]
